Results on two substances are retold here after US5502061A (Eli Lilly and Company, priority 1994, dated 1996).

The nature of data set [1]: general procedure: Boc solid-phase peptide synthesis; PAM-resin; DCC (biotin coupling); standard double-couple protocol.
A short description of data set [2]: Boc solid-phase peptide synthesis; PAM-resin; DCC (biotin coupling); standard double-couple protocol. The following applies: whole synthesis, scale 1.5 mmol.
[3] abbreviates: whole synthesis, scale 1.5 mmol.

For the substance “Fluorescein-labeled Nα-Biotin-Gly-Ser-Gln-Asn-Tyr-Pro-Ile-Val-Gly-Lys-OH”, the conjugation yield in data set [1] (conjugation step) worked out at 12%.
In data set [1] (setting [3]), “N^α -Biotin-Gly-Ser-Gln-Asn-Tyr-Pro-Ile-Val-Gly-Lys-OH” gave an isolated mass of 1.206 g and an isolated yield of 62%. This substance also registered a crude mass in data set [2] of 2.14 g.
